PubChem BioAssay AID1224828, NIAID | 2016
Purpose: 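Regulators linking TLR4 signalling to p65 nuclear translocation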 (primary screen). System: mouse RAW264.7 G9 macrophage reporter cells (GFP-p65, Tnf promoter-mCherry). Reagent: siRNA pool against mouse genes, 100 nM. Timing: 2 days siRNA transfection, then 40 min LPS before fixation. Challenge: LPS (Salmonella minnesota R595) at 10 ng/ml. Measurement: 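Microscopy ratio of nuclear to perinuclear-ring GFP-p65 signal, scaled to the plate median; gene score is the average of two replicate robust z-scores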. Scale: p65 translocation robust z-score: higher = more nuclear NF-kappaB p65 after LPS than the plate median; nuclear/cytoplasmic p65 ratio: higher = more nuclear NF-kappaB p65. Call rule: 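Active if robust z is above 3.3 (negative regulators) or below -1.56, the Tlr4 control median (positive regulators); activity score 50 or more; control wells not called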. Calls: active = hit (p65 shift raised or lowered); inactive = no clear change.
This is one part, drawn at random, of about 17,000 deposited reagents. 762 of all reagents (4.5%) were called active. 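Active calls include both raised and lowered p65 entry, mostly lowered; wells with fewer than 50 cells lack a z-score.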 Raw values vary from plate to plate and are shown uncorrected. Entries without a mark were called inactive. No sequences are given here.

The first 2 records, to show the layout:
no.	target gene	PubChem SID	p65 translocation robust z-score	nuclear/cytoplasmic p65 ratio, rep 1	nuclear/cytoplasmic p65 ratio, rep 2	low cell count flag
1	Cemip	SID315475767	-1.13	1.24	1.42	enough cells to score
2	Mrc1	SID315467979	0.19	1.51	1.33	enough cells to score

The listing, repeating the preview:
no.	target gene	PubChem SID	p65 translocation robust z-score	nuclear/cytoplasmic p65 ratio, rep 1	nuclear/cytoplasmic p65 ratio, rep 2	low cell count flag
1	Cemip	SID315475767	-1.13	1.24	1.42	enough cells to score
2	Mrc1	SID315467979	0.19	1.51	1.33	enough cells to score
3	Kin	SID315467634	-0.92	1.38	1.24	enough cells to score
4	Coq9	SID315473307		1.26	1.21	fewer than 50 cells per well; well left out of scoring
5	Zkscan17	SID315480765	2.44	1.69	1.81	enough cells to score
6	Cmas	SID315466008	-0.44	1.49	1.75	enough cells to score
7	Serpina12	SID315473393	0.65	1.49	1.33	enough cells to score
8	Tcp10a	SID315469633	-0.3	1.16	1.16	enough cells to score
9	Tcp10a	SID315469634		1.37	1.16	fewer than 50 cells per well; well left out of scoring
10	Btg3	SID315465681	-0.16	1.61	1.57	enough cells to score
11	Tal1	SID315469576	-0.48	1.46	1.44	enough cells to score
12	Or2b6	SID315478172	-0.95	1.5	1.45	enough cells to score
13	Kif23	SID315474338		1.27	1.11	fewer than 50 cells per well; well left out of scoring
14	Zic1	SID315470148	0.51	1.67	1.6	enough cells to score
15	Rai14	SID315475169	0.68	1.46	1.29	enough cells to score
16	Med31	SID315472942		1.88	2.19	fewer than 50 cells per well; well left out of scoring
17	Ncam2	SID315468107	0.41	1.48	1.41	enough cells to score
18	Atg12	SID315473079	-1.36	1.42	1.41	enough cells to score
19	Nsf	SID315468252	-0.36	1.27	1.47	enough cells to score
20	Max	SID315467843	0.33	1.54	1.34	enough cells to score
21	Anxa7	SID315465425	0.3	1.64	1.69	enough cells to score
22	Dcaf10	SID315479613	0.96	1.55	1.61	enough cells to score
23	Npas2	SID315468220	-0.52	1.36	1.36	enough cells to score
24	Nat8f2	SID315475913	-0.34	1.58	1.69	enough cells to score
